Assay [1] has as its target T1, MeeF-FLAG (Bacillus subtilis) (UniProt O34447).
T1 sequence: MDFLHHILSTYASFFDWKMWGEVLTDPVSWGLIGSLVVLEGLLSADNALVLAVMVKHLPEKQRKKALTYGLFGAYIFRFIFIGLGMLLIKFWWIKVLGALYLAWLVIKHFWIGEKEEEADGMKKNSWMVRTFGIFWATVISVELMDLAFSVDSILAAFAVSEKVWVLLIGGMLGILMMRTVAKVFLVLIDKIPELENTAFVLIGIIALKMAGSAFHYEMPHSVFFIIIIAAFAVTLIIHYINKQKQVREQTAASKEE
The assay is described as follows: affinity purification with mass spectrometry; C-terminally FLAG-tagged bait captured on anti-FLAG M2 magnetic beads from B. subtilis lysate (overnight LB culture with 50 uM Mn; lysozyme, sonication, DNase, 1% Triton X-100), 30 °C 3 h, three PBS washes; eluted by heating at 95 °C for 10 min; LC-MS/MS, at least 2 peptides.

The target in assay [2] is T2, MeeY-FLAG (Bacillus subtilis) (UniProt O34997).
T2 sequence: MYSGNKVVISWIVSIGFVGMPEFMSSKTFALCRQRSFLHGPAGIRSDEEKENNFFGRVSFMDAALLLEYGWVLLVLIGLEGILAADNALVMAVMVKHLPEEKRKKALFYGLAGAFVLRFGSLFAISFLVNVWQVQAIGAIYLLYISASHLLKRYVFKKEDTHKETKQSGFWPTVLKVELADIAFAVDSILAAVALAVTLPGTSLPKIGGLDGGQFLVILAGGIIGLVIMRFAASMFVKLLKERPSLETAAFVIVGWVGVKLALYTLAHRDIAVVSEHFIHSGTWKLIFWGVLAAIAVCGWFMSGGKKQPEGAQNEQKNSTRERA
The assay is described as above.

Assay [3] addresses T2, MeeY-FLAG (Bacillus subtilis). Description: affinity purification with mass spectrometry; C-terminally FLAG-tagged bait captured on anti-FLAG M2 magnetic beads from B. subtilis lysate (overnight LB culture with 50 uM Mn; lysozyme, sonication, DNase, 1% Triton X-100), 30 °C 3 h, three PBS washes; eluted with glycine (pH 3) for 30 min at room temperature; LC-MS/MS, at least 2 peptides.

No constants are given. Whether binding was seen depends on the method and setting. In cells and extracts the contact can be indirect. A yes stands for co-enrichment or nearness to the bait. Other partners may have been found. Where a sequence is shown, tags or fusion partners need not be part of it.

As for SsdC, the binding entry in assay [1] is recorded as “binds”. Consider MalA (from UniProt P54716 1-449), for which the binding entry in assay [1] was “binds”. Consider FtsH (from UniProt P37476 1-637), for which the binding entry in assay [1] and in assay [2] was “binds” each time.

As for FrlO, in assay [1], the binding result is given as “binds”. Turning to AtpG (from UniProt P37810 1-287), the binding entry in assay [1] and in assay [2] was “binds” throughout. With AtpD (from UniProt P37809 1-473), the binding entry in assay [3] was “binds”. Regarding AtpA (from UniProt P37808 1-502), the binding result in assay [1], in assay [2] and in assay [3] was “binds” throughout.

Values taken from publication PMC10246235.
